Publication PMC5864917 (2018)
No constants are given. Whether binding was seen depends on the method and setting. Binding calls can cover weak binding; strength is not graded here.

Legend:
[1] = biological target: T1, peptide-15 of SE36 (Plasmodium falciparum (Honduras-1)); test: ELISA; SE36, SE36-1 to -4 or SE36 peptides adsorbed to the plate; human serum (NHS or HTS, 1:2000 or at the indicated dilutions) added, 2 h, room temperature; bound VTN detected by anti-VTN antibody; only the target purified
T1 sequence (peptide): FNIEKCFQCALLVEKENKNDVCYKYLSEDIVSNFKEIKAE

[2] = biological target: T1, peptide-15 of SE36 (Plasmodium falciparum (Honduras-1)); test: ELISA; SE36, SE36-1 to -4 (1 μg/mL) or SE36 peptides (0.3 μM) adsorbed to the plate in carbonate buffer pH 9.6; purified or recombinant human protein added (VTN 2 μg/mL or at the indicated concentrations) in PBS-0.05% Tween 20 with 5% skim milk, 2 h, room temperature; detected by antibody; both purified

Vitronectin (VTN), human
binding [1]: binds | binding [2]: binds
